Results reported in PubChem BioAssay AID330 (DTP/NCI, 2004).
The list shows only some results of the screen, not a fair sample: it is rich in T/C values a quarter to a half above the control, in often repeated tests (any T/C) and in doses without a T/C. Other doses and runs of a compound stand elsewhere. T/C is the treated group as % of the vehicle group. Some entries give survivors of the animals treated and no T/C: the source files T/C as zero there, which appears to mark a toxic dose or a test without result, not a measured value. Some survivor counts are full or nearly so, which does not show that the dose was tolerated: the source hardly ever lists a survival T/C far under the control, and the zero likely stands for such cases as well. Survivors were counted at the toxicity check, usually on the fifth day, unless a day is given; later deaths do not show. Schedule codes are those of the source, taken here to give the interval after Q, in days (D) or hours (H), and the number of doses after X. Some doses were run more than once; their values stand side by side, smallest first. Where survival is the endpoint, this PubChem deposit counts one and a half times the control or more as active, and values a quarter to a half above the control carry no call in these data; other NCI protocols may use other cut-offs.

Tested on: P388 leukemia ip, CD2F1 mice, survival T/C
Experiment: NCI In Vivo Anticancer Drug Screen. Data for tumor model P388 Leukemia (intraperitoneal) in CD2F1 (CDF1) mice
Conditions: T/C endpoint: median survival time, higher T/C = longer survival
[1] = dose: 240.0 mg/kg/injection, schedule: Q01DX005 (ip), vehicle: Klucel (hydroxypropylcellulose) (HPC)
[2] = dose: 400.0 mg/kg/injection, schedule: Q04DX002 (ip), vehicle: Klucel (hydroxypropylcellulose) (HPC)
[3] = dose: 50.0 mg/kg/injection, schedule: Q01DX005 (ip), vehicle: Klucel (hydroxypropylcellulose) (HPC)
[4] = dose: 100.0 mg/kg/injection, schedule: Q01DX005 (ip), vehicle: Klucel (hydroxypropylcellulose) (HPC)
[5] = dose: 200.0 mg/kg/injection, schedule: Q01DX005 (ip), vehicle: Klucel (hydroxypropylcellulose) (HPC)
[6] = dose: 7.5 mg/kg/injection, schedule: Q01DX009 (ip), vehicle: saline with Tween-80
[7] = dose: 240.0 mg/kg/injection, schedule: Q01DX005 (ip), vehicle: saline with Tween-80
[8] = dose: 100.0 mg/kg/injection, schedule: Q01DX005 (ip), vehicle: saline
[9] = dose: 200.0 mg/kg/injection, schedule: Q01DX005 (ip), vehicle: saline

With `CCOC(=O)Nc1cc2c(c(N)n1)N=C(c1ccc(Cl)c(Cl)c1)CN2` the T/C (dose: 7.5 mg/kg/injection, schedule: Q01DX005 (ip), vehicle: saline with Tween-80) was 131 % of control, the T/C (dose: 10.0 mg/kg/injection, schedule: Q01DX005 (ip), vehicle: saline with Tween-80) was 140 % of control and the survivor count (dose: 15.0 mg/kg/injection, schedule: Q01DX005 (ip), vehicle: saline with Tween-80) was 5 of 5. For the same compound, the survivor count (dose: 20.0 mg/kg/injection, schedule: Q01DX005 (ip), vehicle: saline with Tween-80) was 5 of 5.

For `Cc1ccc(C2OC(=O)C(=O)C2=O)cc1` (centres undefined), the survivor count (dose: 15.0 mg/kg/injection, schedule: Q01DX005 (ip), vehicle: Klucel + Tween-80) was 4 of 6, the survivor count (dose: 30.0 mg/kg/injection, schedule: Q01DX005 (ip), vehicle: Klucel + Tween-80) was 0 of 6 and the survivor count (dose: 60.0 mg/kg/injection, schedule: Q01DX005 (ip), vehicle: Klucel + Tween-80) was 0 of 6. For the same compound, the survivor count (dose: 120.0 mg/kg/injection, schedule: Q01DX005 (ip), vehicle: Klucel + Tween-80) was 0 of 6 and the survivor count (dose: 240.0 mg/kg/injection, schedule: Q01DX005 (ip), vehicle: Klucel + Tween-80) was 0 of 6.

In the case of `O=C1OC2C(O)COC2(N=Nc2ccc(Cl)cc2)/C1=N/Nc1ccccc1` (centres undefined), the survivor count (dose: 50.0 mg/kg/injection, schedule: Q01DX005 (ip), vehicle: saline with Tween-80) is reported as 6 of 6 and the survivor count (dose: 100.0 mg/kg/injection, schedule: Q01DX005 (ip), vehicle: saline with Tween-80) is reported as 6 of 6.

`Cc1nc2c([N+](=O)[O-])cc(Cl)cc2[nH]1` was tested, and the survivor count [1] was 4 of 6.

For `C=C1C(=O)OC2CC(C)C3OC3C(=O)C(C)(O)C(O)C(O)C12` (centres undefined) (tested in a mixture with another compound), the T/C (dose: 100.0 mg/kg/injection, schedule: Q01DX009 (ip), vehicle: Klucel (hydroxypropylcellulose) (HPC)) was 126 % of control.

`C=c1[nH]c(=O)c(=C)[nH]c1=O` was tested, and the survivor count (dose: 200.0 mg/kg/injection, schedule: Q01DX009 (ip), vehicle: other) was 2 of 6.

With `O=c1[nH]c2c(ccc3cnccc32)c2c1CCC2` the T/C (dose: 12.5 mg/kg/injection, schedule: Q01DX009 (ip), vehicle: saline) was 125 % of control, the T/C (dose: 25.0 mg/kg/injection, schedule: Q01DX009 (ip), vehicle: saline) was 126 and 136 % of control and the T/C (dose: 50.0 mg/kg/injection, schedule: Q01DX009 (ip), vehicle: saline) was 140 % of control. The survivor count (dose: 60.0 mg/kg/injection, schedule: Q01DX009 (ip), vehicle: saline) was 6 of 6, the survivor count (dose: 120.0 mg/kg/injection, schedule: Q01DX009 (ip), vehicle: saline) was 3 of 6 and the survivor count (dose: 240.0 mg/kg/injection, schedule: Q01DX009 (ip), vehicle: saline) was 1 of 6.

With `Cc1cc(N)c(C)c2ccncc12` the survivor count (dose: 2.5 mg/kg/injection, schedule: Q01DX009 (ip), vehicle: saline with Tween-80) was 6 of 6, the survivor count (dose: 5.0 mg/kg/injection, schedule: Q04DX003 (ip), vehicle: saline with Tween-80) was 3 of 6 and the survivor count (dose: 10.0 mg/kg/injection, schedule: Q04DX003 (ip), vehicle: saline with Tween-80) was 0 of 6.

With `COc1ccc2c(c1)[C@@]13CCCCC1[C@@H](C2)NCC3` (some centres undefined) the survivor count (dose: 200.0 mg/kg/injection, schedule: Q04DX002 (ip), vehicle: Klucel (hydroxypropylcellulose) (HPC)) was 0 of 6 and the survivor count [2] was 0 of 6.

`C=C1C(=O)O[C@@H]2[C@@H]3O[C@@](C)(CC[C@H](OC(C)=O)[C@@H]3CO)C[C@@H](OC(=O)/C(=C\C)COC(C)=O)[C@@H]12` was tested, and the survivor count [3] was 1 of 6, the survivor count [4] was 0 of 6 and the survivor count [5] was 0 of 6.

For `COc1cccc(Sc2ccc([N+](=O)[O-])c3no[n+]([O-])c23)c1`, the survivor count (dose: 3.75 mg/kg/injection, schedule: Q01DX009 (ip), vehicle: saline with Tween-80) was 6 of 6, the T/C [6] was 137 % of control and the survivor count [6] was 6 of 6. The survivor count (dose: 15.0 mg/kg/injection, schedule: Q01DX009 (ip), vehicle: saline with Tween-80) was 6 of 6, the survivor count (dose: 30.0 mg/kg/injection, schedule: Q01DX009 (ip), vehicle: saline with Tween-80) was 3 of 6 and 4 of 6 and the survivor count (dose: 60.0 mg/kg/injection, schedule: Q01DX009 (ip), vehicle: saline with Tween-80) was 0 of 6 and 1 of 6.

With `O=C(O)Cc1ccc(N2N=C(c3ccccc3)CC2=O)cc1` the survivor count [7] was 6 of 6.

For `N=C(N)Sc1cc(O)c(O)c2ccccc12`, the survivor count (dose: 25.0 mg/kg/injection, schedule: Q01DX005 (ip), vehicle: saline) was 3 of 6, the survivor count (dose: 50.0 mg/kg/injection, schedule: Q01DX005 (ip), vehicle: saline) was 0 of 6 and the survivor count [8] was 0 of 6. The survivor count [9] was 0 of 6.

`COC(=O)c1ccc(=O)c2nc3/c(=C/O)c(O)c(C)c(=O)c3[nH]c12` was tested, and the survivor count (dose: 25.0 mg/kg/injection, schedule: Q01DX005 (ip), vehicle: other) was 0 of 6, the survivor count (dose: 50.0 mg/kg/injection, schedule: Q01DX005 (ip), vehicle: other) was 0 of 6 and the survivor count (dose: 100.0 mg/kg/injection, schedule: Q01DX005 (ip), vehicle: other) was 0 of 6.

For `O.O.[Cl][Pt+2][Cl].[NH-]C1CC2CCC1C2.[NH-]C1CC2CCC1C2` (centres undefined), the T/C (dose: 22.0 mg/kg/injection, schedule: Q04DX003 (ip), vehicle: saline with Tween-80) was 139 % of control and the T/C (dose: 75.0 mg/kg/injection, schedule: Q04DX003 (ip), vehicle: saline with Tween-80) was 148 % of control.

For `C[N+](C)(C)CC(C[N+](C)(C)C)C(=O)c1ccccc1`, the survivor count (dose: 25.0 mg/kg/injection, schedule: Q01DX009 (ip), vehicle: Klucel (hydroxypropylcellulose) (HPC)) was 3 of 6, the survivor count [3] was 0 of 6 and the survivor count [4] was 0 of 6. For the same compound, the survivor count [5] was 0 of 6.

With `COc1ccc2c(c1)[C@@]13CCCC[C@H]1[C@@H](C2)N(C)CC3(C)O` (some centres undefined) the survivor count [2] was 6 of 6.

In the case of `c1csc(-c2ccn[nH]2)c1`, the survivor count (dose: 120.0 mg/kg/injection, schedule: Q01DX005 (ip), vehicle: saline with Tween-80) is reported as 0 of 6 and the survivor count [7] is reported as 0 of 6.

With `CSC1=CC(=NCc2ccccc2)CC(C)(C)S1` the survivor count (dose: 120.0 mg/kg/injection, schedule: Q01DX005 (ip), vehicle: Klucel (hydroxypropylcellulose) (HPC)) was 2 of 6 and the survivor count [1] was 0 of 6.

For `O=C1OC(c2cccc(Cl)c2)=N/C1=C\C=C/c1ccccc1`, the survivor count (dose: 200.0 mg/kg/injection, schedule: Q01DX009 (ip), vehicle: suspension in saline) was 6 of 6 and the survivor count (dose: 400.0 mg/kg/injection, schedule: Q01DX009 (ip), vehicle: suspension in saline) was 5 of 6.

In the case of `CC(=O)ON(C(C)=O)c1ccc(C(=O)OC2(C)CC(C)(C)N=N2)cc1` (centres undefined), the survivor count (dose: 25.0 mg/kg/injection, schedule: Q01DX009 (ip), vehicle: saline with Tween-80) is reported as 6 of 6 and the survivor count (dose: 50.0 mg/kg/injection, schedule: Q01DX009 (ip), vehicle: saline with Tween-80) is reported as 6 of 6.

For `CC(=O)C(O)N1C(=O)C=CC1=O` (centres undefined), the survivor count (dose: 5.0 mg/kg/injection, schedule: Q01DX009 (ip), vehicle: saline with Tween-80) was 6 of 6 and the survivor count (dose: 10.0 mg/kg/injection, schedule: Q01DX009 (ip), vehicle: saline with Tween-80) was 1 of 6.

In the case of `O=C1NC(=O)C2=C1CCC2`, the survivor count (dose: 25.0 mg/kg/injection, schedule: Q01DX009 (ip), vehicle: distilled water + Tween-80) is reported as 3 of 6, the survivor count (dose: 50.0 mg/kg/injection, schedule: Q01DX009 (ip), vehicle: distilled water + Tween-80) is reported as 0 of 6 and the survivor count (dose: 100.0 mg/kg/injection, schedule: Q01DX009 (ip), vehicle: distilled water + Tween-80) is reported as 0 of 6.

For `COc1ccc(Cc2c3cc(OC)c(OC)cc3cc[n+]2CC(=O)c2ccc(F)cc2)cc1OC`, the survivor count [4] was 0 of 5 and the survivor count [5] was 0 of 5.

In the case of `COc1ccc2ncc(COC(=O)NC3CCCCC3)c(COC(=O)NC3CCCCC3)c2c1`, the survivor count [4] is reported as 6 of 6 and the survivor count [5] is reported as 6 of 6.

For `COC1=CC(=[N+]2CCCCC2)CC(C)(C)C1`, the survivor count [8] was 0 of 6 and the survivor count [9] was 0 of 6.

`CCNc1cc(N)[n+](CC)c2n[nH]c(N)c12` was tested, and the survivor count [9] was 0 of 6.
